Laboratory results reported in PubChem BioAssay AID2685 (National Center for Advancing Translational Sciences (NCATS), 2010).
The whole screen tested about 320,000 compounds, of which about 2,100 (0.66%) were called active. Inconclusive results, whose numbers are uncertain, are shown with a selection of clear calls. The call rests on the fitted dose curve; in most records, active means well fitted inhibition curve with a large enough effect in the signal ratio, with a control signal flat (not every such curve was filed as active); inconclusive means small, poorly fitted or top-dose-only effect, or effect the other way, or a change in a side signal; inactive means flat fitted curve, though single readings scatter; the % refers to the signal ratio. Where the call is inconclusive, the potency comes from a doubtful curve fit.

Test: qHTS Assay for Lipid Storage Modulators in Drosophila S3 Cells
Settings: BODIPY lipid droplet fluorescence, 18-24 h, cells fed with added oleic acid; lipid storage change, negative = inhibition: at 46.1 µM (top of the series) unless noted
In short: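 Drosophila S3 cells loaded with oleic acid (400 uM, as added) and compounds at several concentrations; lipid droplets imaged by 488-nm laser-scanning cytometry, 500–530 nm intensity and object ratio to cell channel. Percent activity normalized to 20 uM Triacsin C.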
On the % scale 0 is the no-effect control and ±100 the full control effect; potency means the concentration at half of the fitted maximal effect.

Row | Structure (SMILES) | lipid storage change, negative = inhibition | Potency
1 | Cc1cc(C)n(CC(=O)c2ccc(Br)cc2)c(=O)c1C#N | inconclusive: -6.4% | –
2 | CCCCN(Cc1cccs1)S(=O)(=O)c1csc(C(N)=O)c1 | inconclusive: -7.86% | –
3 | CC1=C(C(=O)OC(C)C)C(c2ccc(Br)s2)NC(=O)N1 (centres undefined) | inconclusive: 29.2% | –
4 | O=S(=O)(Nc1cccc(-c2cn3cccnc3n2)c1)c1ccc(F)cc1 | inconclusive: -42.4% | –
5 | O=C(NCc1ccco1)/C(=C/c1cccnc1)NC(=O)c1cccc(Br)c1 | inconclusive: -45.4% | –
6 | COc1cc(NC(=O)c2ccc(Cl)cc2Cl)ccc1-c1cc2ccccc2oc1=O | inconclusive: 35.4% | –
7 | Cc1cc(C)cc(CC2CC(=O)N(c3ccc4c(c3)OCCO4)C2=O)c1 (centres undefined) | inconclusive: 28.6% | –
8 | NC(Cc1ccccc1)C(O)(c1ccccc1)c1ccccc1 (centres undefined) | inactive | –
9 | Cc1ccc(S(=O)(=O)NCCc2nnc3ccc(SCc4cccnc4)nn23)cc1 | inconclusive: 5.27% [at 9.22 µM] | –
10 | COc1cccc(C2CC(c3ccc(Br)cc3)=NN2C(=O)c2ccncc2)c1OC (centres undefined) | – | inconclusive: 9.2 µM [falling, partial curve, poor fit]
11 | COc1ccc(S(=O)(=O)NCc2ccc(F)cc2)cc1OC | inconclusive: 1.34% | –
12 | CCOC(=O)c1cnc(SCC(=O)NNC(=O)c2ccco2)nc1N | inconclusive: 161% | –
13 | CCC(C)c1ccc(NC(=S)N2CCCC2)cc1 (centres undefined) | inconclusive: -54.3% | –
14 | COc1ccc(OC)c(C(C)NC(C)=O)c1 (centres undefined) | inconclusive: -3.04% | –
15 | CSCCC(NC(=O)c1cccc(C)c1)C(=O)O (centres undefined) | inconclusive: 17.6% | –
16 | O=C(Nc1cccc(Cl)c1N1CCCCC1)c1ccc(N2CCOCC2)c([N+](=O)[O-])c1 | inconclusive: 5.95% | –
17 | COc1cccc(NS(=O)(=O)c2ccc3c(c2)N(C(C)=O)CCO3)c1 | inconclusive: 97.9% | –
18 | O=C(COc1ccccc1)Nc1nc(-c2cccnc2)cs1 | – | inconclusive: 0.92 µM [activator, partial curve]
19 | O=c1c2ccccc2ncn1C1CCCCC1 | inconclusive: 0.095% | –
20 | CCCn1c(CN2CCCCC2C)nc2c1c(=O)n(C)c(=O)n2C (centres undefined) | inconclusive: -0.172% | –
21 | COc1ccc(C(=O)C2CCN(CC(=O)NCc3ccccc3)CC2)cc1 | inconclusive: -1.93% | –

Individual results from the list.
Value of NC(Cc1ccccc1)C(O)(c1ccccc1)c1ccccc1 (centres undefined) under lipid storage change, negative = inhibition: inactive
Value of COc1cccc(C2CC(c3ccc(Br)cc3)=NN2C(=O)c2ccncc2)c1OC (centres undefined) under Potency: inconclusive: 9.2 µM [falling, partial curve, poor fit]
Value of Cc1ccc(S(=O)(=O)NCCc2nnc3ccc(SCc4cccnc4)nn23)cc1 under lipid storage change, negative = inhibition: inconclusive: 5.27% [at 9.22 µM]
Value of CCOC(=O)c1cnc(SCC(=O)NNC(=O)c2ccco2)nc1N under lipid storage change, negative = inhibition: inconclusive: 161%
Value of Cc1cc(C)cc(CC2CC(=O)N(c3ccc4c(c3)OCCO4)C2=O)c1 (centres undefined) under lipid storage change, negative = inhibition: inconclusive: 28.6%
Value of O=C(NCc1ccco1)/C(=C/c1cccnc1)NC(=O)c1cccc(Br)c1 under lipid storage change, negative = inhibition: inconclusive: -45.4%
Value of O=S(=O)(Nc1cccc(-c2cn3cccnc3n2)c1)c1ccc(F)cc1 under lipid storage change, negative = inhibition: inconclusive: -42.4%

Next part:

Row | Structure (SMILES) | lipid storage change, negative = inhibition | Potency
22 | Cc1nn(-c2ccccc2)c(C)c1C=O | inconclusive: -20.4% | –
23 | O=C(O)CCNS(=O)(=O)c1ccccc1C(F)(F)F | inconclusive: -2.55% | –
24 | COCCCNC(=O)c1ccc2c(=O)n(Cc3ccc4c(c3)OCO4)c(=S)[nH]c2c1 | – | inconclusive: 0.731 µM [activator, full curve]
25 | CC(C)Cc1nnc(NC(=O)CCC(=O)N2CCOCC2)s1 | inconclusive: -16.1% | –
26 | Cc1cc(C(=O)CSc2nc3ccccc3o2)c(C)n1CC1CCCO1 (centres undefined) | inconclusive: 255% | –
27 | O=C(CN1CCOCC1)Nc1cc([N+](=O)[O-])ccc1Cl | – | inconclusive: 25.9 µM [activator, single point]
28 | COc1cc(/C=N/NC(=S)NCc2ccccc2)ccc1OCC#N | – | inconclusive: 10.3 µM [activator, partial curve]
29 | COc1ccc(-c2ccnc(-c3ccncc3)n2)cc1 | inconclusive: 10% | –
30 | CC(=O)c1ccc(OCc2cc(C(=O)NC(C)c3cnn(C)c3)no2)cc1 (centres undefined) | inconclusive: 129% | –
31 | COc1ccc(OC)c(C(=O)Cn2cnc3ccccc3c2=O)c1 | inconclusive: -89.2% | –
32 | COc1cccc(NC(=S)N(CCCN2CCCC2)Cc2ccco2)c1 | inconclusive: 9.09% | –
33 | O=C(CNc1cc(S(=O)(=O)N2CCOCC2)ccc1N1CCCC1)N1CCc2ccccc21 | inconclusive: 69.7% | –
34 | O=C(NCCO)c1ccc(Cl)c(Cl)c1 | – | inconclusive: 29.1 µM [falling, single point]
35 | CCc1nnc(NC(=O)C(C)Sc2ccccc2)s1 (centres undefined) | inconclusive: 12.6% | –
36 | COc1cccc(CSc2nnnn2-c2ccc(O)cc2)c1 | inconclusive: 45.2% | –
37 | COc1ccc(C(=O)Nc2ncccc2C)cc1S(=O)(=O)N1CCOCC1 | – | inconclusive: 0.0046 µM [falling, full curve, poor fit]
38 | Cc1ccc2occ(C3NC(C(=O)O)CS3)c(=O)c2c1 (centres undefined) | – | inconclusive: 20.6 µM [activator, single point]
39 | CCOC(=O)C(NC(C)=O)C(=O)Nc1ccc(C(C)C)cc1 (centres undefined) | inconclusive: -4.57% | –
40 | CCCc1nc(-c2ccc(-c3ccc(F)cc3)cc2)no1 | inconclusive: 8.39% | –
41 | Cc1nc(N2CCOCC2)c2cc(-c3ccccc3)sc2n1 | – | inconclusive: 29.1 µM [activator, single point]
42 | Cn1ncc2c(NNC(=O)Cc3ccccc3)ncnc21 | inconclusive: -52.1% | –

Row | Structure (SMILES) | lipid storage change, negative = inhibition | Potency
43 | Cc1ccc2c(c1)CCCN2C(=O)c1ccoc1C | inconclusive: 0.97% | –
44 | Cn1c(N)c(C(=O)COC(=O)CCC(=O)c2cccs2)c(=O)n(C)c1=O | inconclusive: 4.04% | –
45 | Cc1nnc(SCC(=O)NCc2ccc3c(c2)OCO3)[nH]c1=O | inconclusive: 2.66% | –
46 | NC(Cc1cccc2nsnc12)C(=O)O (centres undefined) | – | inconclusive: 1.84 µM [falling, full curve]
47 | CC1CCN(C(=O)c2[nH]cnc2C(=O)NCCCCCNC(=O)OC(C)(C)C)CC1 | inconclusive: 2.37% | –
48 | CN(C(=O)CSc1nnc(-c2cccnc2)o1)C1CCCCC1 | inconclusive: -7.22% | –
49 | COc1ccc(CCN2C(=S)N(C)C(=O)C2CC(=O)Nc2ccc(F)cc2)cc1 (centres undefined) | inconclusive: -1.29% | –
50 | CC1CC(C)CN(CCCNC(=O)C2CCN(c3ncnc4c3sc3cccc(F)c34)CC2)C1 (centres undefined) | – | inconclusive: 29.1 µM [activator, single point]
51 | COc1ccc(C)cc1NC(=O)c1ccc(N(C)S(C)(=O)=O)cc1 | – | inconclusive: 4.11 µM [rising, partial curve]
52 | N#Cc1cc2c([nH]c1=O)CCCC2 | inconclusive: 1.6% | –
53 | Fc1ccc(Oc2cnns2)cc1 | inconclusive: -65.2% | –
54 | COC(=O)C1=C(CN2CCN(C)CC2)NC(=O)NC1c1cc(C)ccc1C (centres undefined) | inconclusive: 14.3% | –
55 | O=C(O)CCCC(=O)Nc1ccc(C(=O)N2CCCCC2)c(Cl)c1 | – | inconclusive: 1.3 µM [falling, full curve]
56 | CCN(CC)C(=O)C1CCN(Cc2ccc(OCc3ccccc3)cc2)CC1 | inconclusive: 22.8% | –
57 | CCCCC1CCC(C(=O)Nc2ccc(S(=O)(=O)Nc3nccs3)cc2)CC1 (centres undefined) | inconclusive: 69.8% | –
58 | O=C(c1ccccc1)c1ccc(OCCCN2CCCCC2)cc1 | – | inconclusive: 0.0065 µM [falling, full curve, poor fit]
59 | C=CCc1cccc2cc(C(=O)O)c(=O)oc12 | – | inconclusive: 0.116 µM [falling, full curve, poor fit]
60 | O=C1C[C@@H](c2ccc(O[C@@H]3O[C@H](CO)[C@@H](O)[C@H](O)[C@H]3O)cc2)Oc2cc(O)ccc21 | inconclusive: 21.1% | –
61 | Cc1cccc(Nc2nc(N3CCCCC3)nc(N3CCCCC3)n2)c1 | inconclusive: 11.1% | –
62 | Cc1cccnc1NC(=O)CNC(=O)c1ccccc1 | – | inconclusive: 25.9 µM [activator, single point]
63 | C=CCNC(=S)NNC(=O)C(CCCC)CC(O)COCC(C)C (centres undefined) | inactive | –

Row | Structure (SMILES) | lipid storage change, negative = inhibition | Potency
64 | N#CC1=C(SCC(=O)c2ccc(Br)cc2)NC2=C(C(=O)CCC2)C1c1ccco1 (centres undefined) | – | inconclusive: 0.82 µM [activator, partial curve]
65 | COc1ccc(N2CCN(C(=S)NCc3ccccc3)CC2)cc1 | inconclusive: 0.26% | –
66 | O=C(NCCN1CCOCC1)c1csc2c1CCCCC2 | inconclusive: -0.557% | –
67 | O=C(Nn1c(-c2ccncc2)nc2ccccc2c1=O)c1ccccc1Br | inconclusive: 56.7% | –
68 | COc1ccc(C2CC(c3cccs3)=NN2S(C)(=O)=O)cc1 (centres undefined) | inconclusive: -3.44% | –
69 | Oc1ccc2ccccc2c1/C=N/Nc1ccccc1 | inconclusive: -13.4% | –
70 | N#CCSc1ccc2nc(-c3ccccc3)cn2n1 | inconclusive: 50.3% | –
71 | O=C(N1CCOCC1)C(F)(F)C(=O)N1CCOCC1 | inconclusive: -23% | –
72 | O=C(Nc1ccc(Cl)cc1)OCCn1nnnc1C(c1ccccc1Cl)N1CCOCC1 (centres undefined) | inconclusive: -30.5% | –
73 | COc1ccc(Oc2cnc3ccccc3n2)cc1 | inconclusive: 17.5% | –
74 | O=C(NCCC1=CCCCC1)c1ccc(-n2cncn2)c([N+](=O)[O-])c1 | inactive | –
75 | Cc1cccc(N2CCN(C(=O)CCCSc3nc4ccccc4[nH]3)CC2)c1C | – | inconclusive: 16.4 µM [activator, single point]
76 | COc1ccccc1CNC(=O)COc1ccccc1C | inconclusive: 19.5% | –
77 | COc1ccc(C(=O)COC(=O)c2sc(C)nc2C)cc1Cl | inconclusive: 9.84% | –
78 | OCC1(Cc2ccc(F)cc2)CCCN(CCCC(F)(F)F)C1 (centres undefined) | inconclusive: 5.64% | –
79 | CN(C)NC(=S)NC1CC2CCC1C2 (centres undefined) | inconclusive: -12.3% | –
80 | Cc1cccc(NC(=O)[C@H](Cc2ccccc2)NC(=O)OCc2ccccc2)c1 | inconclusive: 27.5% | –
81 | CC(C)CNC(=S)N1CCN(Cc2ccc3c(c2)OCO3)CC1 | inconclusive: 32.9% | –
82 | COC(=O)c1c(C)[nH]c(C(=O)COC(=O)c2c(C)noc2C)c1C | inconclusive: 22.5% | –
83 | COc1ccc(OC)c(C(=O)NC(CC(N)=O)c2ccc(N3CCC(Cc4ccccc4)CC3)c([N+](=O)[O-])c2)c1 (centres undefined) | inconclusive: 54% | –
84 | CCOCCCNC(=S)N1CCN(c2nc(-c3ccc(F)cc3)cs2)CC1 | – | inconclusive: 29.1 µM [falling, single point]
